gLogD7.4 data for one compound are collected here from PMC7362394 (Bioorganic & medicinal chemistry letters, 2019).

For this data set the following is noted: pH 7.4.

`N=C(N)NC(=O)c1nc(-c2cc3ccccc3o2)c(N)nc1N` [Compound 15]: the gLogD7.4 came to 2.8.
